The record followed here is patent publication US20080118978A1 (published 2008).

Sequences of proteins named here, by UniProt entry; tags and fusion partners are left off. A change or cut given only in a name is not applied to a line headed by its entry.
UniProt P08473: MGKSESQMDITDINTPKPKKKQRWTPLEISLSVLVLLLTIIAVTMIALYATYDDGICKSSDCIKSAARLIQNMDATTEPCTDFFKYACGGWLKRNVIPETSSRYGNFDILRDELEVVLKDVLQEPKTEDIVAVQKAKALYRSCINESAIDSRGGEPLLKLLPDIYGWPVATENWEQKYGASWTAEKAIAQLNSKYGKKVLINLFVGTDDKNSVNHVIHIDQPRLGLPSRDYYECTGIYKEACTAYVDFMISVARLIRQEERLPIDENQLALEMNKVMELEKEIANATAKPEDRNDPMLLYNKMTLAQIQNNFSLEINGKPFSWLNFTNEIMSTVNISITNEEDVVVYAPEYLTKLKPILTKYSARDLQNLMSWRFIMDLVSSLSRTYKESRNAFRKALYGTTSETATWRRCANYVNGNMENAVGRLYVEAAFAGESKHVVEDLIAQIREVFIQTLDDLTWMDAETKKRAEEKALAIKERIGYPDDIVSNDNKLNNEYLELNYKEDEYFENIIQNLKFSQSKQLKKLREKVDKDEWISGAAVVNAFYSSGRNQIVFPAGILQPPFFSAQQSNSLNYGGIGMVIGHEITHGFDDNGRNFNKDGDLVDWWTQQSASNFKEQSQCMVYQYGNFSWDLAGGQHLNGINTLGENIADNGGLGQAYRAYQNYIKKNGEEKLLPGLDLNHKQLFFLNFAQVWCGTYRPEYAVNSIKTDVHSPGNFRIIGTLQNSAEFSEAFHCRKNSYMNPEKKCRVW

The target of the test is T1, CD10 (human, UniProt P08473 2-750).
T1 construct: Endogenous CD10 of human cell lines: on Raji, RTX/Raji and Ramos cells in flow cytometry; In the ELISA it was a Triton X-100-dissolved membrane fraction of SBC-3 cells coated on the plate; also called CALLA; neutral endopeptidase
The test is described as follows: flow cytometry (mean fluorescence intensity) on Ramos cells from excised xenografts.

Results are given in words; binding and its absence hold for the method and conditions named. Some results given as binding are weak or reduced against the parent protein; the word gives no strength.

B1: mouse anti-CD10 antibody NL-1 (antibody, V domains shown)
VH: DVQLVESGGGLVQPGGSRKLSCAASGFTFSSFGMHWVRQAPEKGLEWVAYISGGSYTIYYADTVKGRFTISRDNPKNTLFLQMTSLRSEDTAMYYCASSYGNFWYFDVWGAGTTVTVSS
VL: EIVLTQSPALMAASPGEKVTIACSVSSSISSSNLHWYQQKSETSPKPWIYGTSNLASGVPVRFSGSGSGTSYFLTISSMEAEDAATYYCQQWSSYPLTFGGGTKLEIK
notes: Mouse hybridoma antibody; H chain cloned with a mouse Cgamma2a probe and L chain with a Ckappa probe; also called anti-CD10 mouse antibody NL-1
Consider B1, for which the binding entry is “binds”.
